Some of the results follow.
Legend:
Experiment in all cases: log2 fold change, soluble protein after heating vs DMSO (PISA); higher = thermal stabilisation; K562 cells, 10 uM, 30 min; active = over 0.2 and 3.5 SD of the protein, either way, in both replicates (recomputed)
[1] = compound: CC1=C(C=C(C=C1)NC(=O)C2=CC(=CC=C2)C(C)(C)C#N)NC3=CC4=C(C=C3)N=CN(C4=O)C
Procedure, shortened: (§1)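 For each measurement, 10 μM compound was applied for 30 min to K562 cells at 2×10^6 cells/mL. Aliquots were heated for 3 min across 48°C-58°C, pooled, and extracted in PBS with 0.5% NP-40 at 4°C; the supernatant after 21,000xg for 90 min was soluble protein. This was quantified by TMTpro 16plex LC-MS/MS with channel sums equalised, and thermal stability was reported relative to control samples from duplicates, on a log2 fold-change scale.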

Amino acid sequences for entries named in this document (tags omitted). A change or cut given only in a name is not applied to a line headed by its entry.
UniProt O94842: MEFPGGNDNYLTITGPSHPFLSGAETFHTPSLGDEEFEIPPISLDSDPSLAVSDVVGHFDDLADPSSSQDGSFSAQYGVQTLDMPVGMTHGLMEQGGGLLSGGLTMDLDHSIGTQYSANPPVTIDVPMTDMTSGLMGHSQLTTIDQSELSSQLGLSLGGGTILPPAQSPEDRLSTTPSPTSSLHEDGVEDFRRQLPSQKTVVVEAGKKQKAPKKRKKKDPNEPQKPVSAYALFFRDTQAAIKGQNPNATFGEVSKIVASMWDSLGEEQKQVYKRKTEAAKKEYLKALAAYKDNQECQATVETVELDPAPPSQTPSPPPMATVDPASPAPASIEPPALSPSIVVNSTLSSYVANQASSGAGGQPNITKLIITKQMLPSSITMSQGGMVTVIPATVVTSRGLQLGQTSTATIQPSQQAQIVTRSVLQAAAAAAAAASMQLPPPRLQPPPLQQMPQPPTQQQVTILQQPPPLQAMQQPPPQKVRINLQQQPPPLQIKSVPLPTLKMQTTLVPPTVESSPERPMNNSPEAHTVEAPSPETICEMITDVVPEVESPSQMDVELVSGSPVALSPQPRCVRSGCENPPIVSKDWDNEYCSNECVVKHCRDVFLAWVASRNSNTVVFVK
UniProt Q02880: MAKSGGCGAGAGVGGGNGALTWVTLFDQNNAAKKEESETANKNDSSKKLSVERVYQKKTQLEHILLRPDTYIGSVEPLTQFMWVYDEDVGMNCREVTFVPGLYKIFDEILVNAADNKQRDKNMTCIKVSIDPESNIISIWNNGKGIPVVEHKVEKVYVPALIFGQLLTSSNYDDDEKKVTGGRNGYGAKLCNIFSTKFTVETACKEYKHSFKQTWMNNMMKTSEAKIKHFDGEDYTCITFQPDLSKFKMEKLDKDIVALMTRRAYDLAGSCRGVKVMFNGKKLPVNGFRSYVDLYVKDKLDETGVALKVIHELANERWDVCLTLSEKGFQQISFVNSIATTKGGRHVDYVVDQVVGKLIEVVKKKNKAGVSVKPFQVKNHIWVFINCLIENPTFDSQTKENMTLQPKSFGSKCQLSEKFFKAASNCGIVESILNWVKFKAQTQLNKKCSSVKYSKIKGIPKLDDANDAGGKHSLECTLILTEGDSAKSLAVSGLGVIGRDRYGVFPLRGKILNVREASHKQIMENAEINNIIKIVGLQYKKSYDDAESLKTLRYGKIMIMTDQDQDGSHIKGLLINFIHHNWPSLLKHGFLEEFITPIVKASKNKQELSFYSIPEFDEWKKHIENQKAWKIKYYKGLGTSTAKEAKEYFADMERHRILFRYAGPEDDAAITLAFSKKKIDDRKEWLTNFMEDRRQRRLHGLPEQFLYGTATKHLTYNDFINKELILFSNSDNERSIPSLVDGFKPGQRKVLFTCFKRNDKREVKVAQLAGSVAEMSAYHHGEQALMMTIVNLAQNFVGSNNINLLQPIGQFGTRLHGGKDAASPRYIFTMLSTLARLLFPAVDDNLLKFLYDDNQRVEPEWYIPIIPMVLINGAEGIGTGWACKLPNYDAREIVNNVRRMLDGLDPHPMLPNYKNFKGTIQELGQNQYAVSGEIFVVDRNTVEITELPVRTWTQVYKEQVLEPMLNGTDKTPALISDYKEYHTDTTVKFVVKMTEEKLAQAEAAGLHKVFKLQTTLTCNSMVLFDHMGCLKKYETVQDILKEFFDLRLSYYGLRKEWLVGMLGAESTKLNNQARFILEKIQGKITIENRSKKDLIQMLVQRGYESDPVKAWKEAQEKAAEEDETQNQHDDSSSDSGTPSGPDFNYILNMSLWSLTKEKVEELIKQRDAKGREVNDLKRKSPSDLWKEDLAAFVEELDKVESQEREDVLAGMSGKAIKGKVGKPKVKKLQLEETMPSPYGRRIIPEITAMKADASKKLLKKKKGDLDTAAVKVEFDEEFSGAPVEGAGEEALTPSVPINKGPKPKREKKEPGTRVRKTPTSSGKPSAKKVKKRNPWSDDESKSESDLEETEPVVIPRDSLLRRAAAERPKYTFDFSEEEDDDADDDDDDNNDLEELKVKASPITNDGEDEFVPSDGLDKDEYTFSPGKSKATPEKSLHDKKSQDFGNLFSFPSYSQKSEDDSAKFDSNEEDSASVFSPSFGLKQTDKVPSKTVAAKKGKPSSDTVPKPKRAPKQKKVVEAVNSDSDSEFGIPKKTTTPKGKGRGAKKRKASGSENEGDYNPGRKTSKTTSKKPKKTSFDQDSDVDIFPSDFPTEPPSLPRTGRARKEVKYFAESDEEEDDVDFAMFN
UniProt Q96Q11: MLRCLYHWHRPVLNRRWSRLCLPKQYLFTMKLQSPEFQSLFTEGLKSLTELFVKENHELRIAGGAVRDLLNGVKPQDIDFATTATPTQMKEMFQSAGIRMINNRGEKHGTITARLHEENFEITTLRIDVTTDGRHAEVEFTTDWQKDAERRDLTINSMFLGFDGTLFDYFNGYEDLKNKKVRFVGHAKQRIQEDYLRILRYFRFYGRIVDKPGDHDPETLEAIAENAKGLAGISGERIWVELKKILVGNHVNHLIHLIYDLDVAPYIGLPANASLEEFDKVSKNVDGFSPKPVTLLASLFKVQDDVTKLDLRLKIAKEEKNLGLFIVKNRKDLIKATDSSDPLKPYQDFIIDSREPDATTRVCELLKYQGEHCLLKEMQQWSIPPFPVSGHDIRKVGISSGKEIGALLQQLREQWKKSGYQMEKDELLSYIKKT
UniProt O43399: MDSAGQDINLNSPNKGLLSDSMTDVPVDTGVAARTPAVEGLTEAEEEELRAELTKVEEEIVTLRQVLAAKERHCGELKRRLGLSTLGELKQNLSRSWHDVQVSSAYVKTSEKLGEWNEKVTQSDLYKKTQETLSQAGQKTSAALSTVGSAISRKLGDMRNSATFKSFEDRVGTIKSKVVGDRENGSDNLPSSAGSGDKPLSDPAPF
UniProt Q5JU69: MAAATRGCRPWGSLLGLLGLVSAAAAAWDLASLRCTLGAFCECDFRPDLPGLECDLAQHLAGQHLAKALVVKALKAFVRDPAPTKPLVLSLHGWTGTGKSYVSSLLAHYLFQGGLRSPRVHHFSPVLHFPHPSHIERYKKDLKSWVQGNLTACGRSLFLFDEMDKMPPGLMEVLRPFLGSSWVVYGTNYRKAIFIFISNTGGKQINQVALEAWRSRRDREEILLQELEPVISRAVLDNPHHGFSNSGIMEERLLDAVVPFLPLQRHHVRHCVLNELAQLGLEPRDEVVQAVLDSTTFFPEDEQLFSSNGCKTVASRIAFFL
UniProt P29144: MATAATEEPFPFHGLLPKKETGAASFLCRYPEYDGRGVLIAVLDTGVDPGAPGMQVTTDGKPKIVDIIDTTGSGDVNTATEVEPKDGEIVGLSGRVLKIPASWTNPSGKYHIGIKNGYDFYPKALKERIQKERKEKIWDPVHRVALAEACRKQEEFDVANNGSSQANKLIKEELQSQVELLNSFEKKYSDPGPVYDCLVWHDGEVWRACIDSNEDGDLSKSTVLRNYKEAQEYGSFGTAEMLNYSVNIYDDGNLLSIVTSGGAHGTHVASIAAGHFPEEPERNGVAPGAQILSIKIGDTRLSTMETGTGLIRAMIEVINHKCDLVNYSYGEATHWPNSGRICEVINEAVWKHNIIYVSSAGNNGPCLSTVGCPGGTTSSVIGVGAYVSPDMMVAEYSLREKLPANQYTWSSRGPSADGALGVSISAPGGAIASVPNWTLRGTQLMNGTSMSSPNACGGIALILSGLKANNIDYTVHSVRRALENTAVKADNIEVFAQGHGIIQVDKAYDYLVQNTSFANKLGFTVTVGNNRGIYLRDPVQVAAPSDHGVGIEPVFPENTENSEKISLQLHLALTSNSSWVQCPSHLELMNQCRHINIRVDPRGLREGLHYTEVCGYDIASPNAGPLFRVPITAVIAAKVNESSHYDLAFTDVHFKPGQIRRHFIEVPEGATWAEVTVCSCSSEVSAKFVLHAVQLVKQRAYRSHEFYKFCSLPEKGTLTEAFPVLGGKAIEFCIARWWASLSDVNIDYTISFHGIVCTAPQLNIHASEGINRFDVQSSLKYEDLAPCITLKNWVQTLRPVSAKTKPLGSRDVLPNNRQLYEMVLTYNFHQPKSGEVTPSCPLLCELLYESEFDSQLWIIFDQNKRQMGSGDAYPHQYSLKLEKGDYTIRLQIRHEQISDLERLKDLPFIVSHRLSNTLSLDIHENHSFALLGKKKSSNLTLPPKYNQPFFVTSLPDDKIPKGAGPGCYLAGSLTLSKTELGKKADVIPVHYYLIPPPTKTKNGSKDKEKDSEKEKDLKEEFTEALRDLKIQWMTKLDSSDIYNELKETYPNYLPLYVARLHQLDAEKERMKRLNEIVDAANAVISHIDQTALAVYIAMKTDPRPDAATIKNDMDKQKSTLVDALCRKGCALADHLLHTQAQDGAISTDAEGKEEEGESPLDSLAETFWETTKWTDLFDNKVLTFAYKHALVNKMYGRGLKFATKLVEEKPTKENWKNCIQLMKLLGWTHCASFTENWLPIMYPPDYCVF
UniProt Q9NXH8: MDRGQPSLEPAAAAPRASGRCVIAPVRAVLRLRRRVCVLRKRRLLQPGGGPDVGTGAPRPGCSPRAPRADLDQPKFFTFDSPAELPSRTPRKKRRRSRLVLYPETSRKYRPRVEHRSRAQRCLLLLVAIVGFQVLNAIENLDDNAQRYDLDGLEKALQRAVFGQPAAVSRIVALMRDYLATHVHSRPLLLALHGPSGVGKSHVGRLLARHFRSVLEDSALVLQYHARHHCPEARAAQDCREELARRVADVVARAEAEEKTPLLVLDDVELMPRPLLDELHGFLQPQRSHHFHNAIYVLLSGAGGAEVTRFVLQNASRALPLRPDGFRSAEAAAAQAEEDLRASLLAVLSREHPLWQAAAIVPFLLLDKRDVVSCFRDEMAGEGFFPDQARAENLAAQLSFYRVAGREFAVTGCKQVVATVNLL
UniProt Q9NS69: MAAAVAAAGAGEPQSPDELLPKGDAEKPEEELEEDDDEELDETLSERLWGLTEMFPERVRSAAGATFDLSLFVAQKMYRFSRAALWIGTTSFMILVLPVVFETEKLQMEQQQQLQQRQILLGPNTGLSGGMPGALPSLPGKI
UniProt Q9UJA5: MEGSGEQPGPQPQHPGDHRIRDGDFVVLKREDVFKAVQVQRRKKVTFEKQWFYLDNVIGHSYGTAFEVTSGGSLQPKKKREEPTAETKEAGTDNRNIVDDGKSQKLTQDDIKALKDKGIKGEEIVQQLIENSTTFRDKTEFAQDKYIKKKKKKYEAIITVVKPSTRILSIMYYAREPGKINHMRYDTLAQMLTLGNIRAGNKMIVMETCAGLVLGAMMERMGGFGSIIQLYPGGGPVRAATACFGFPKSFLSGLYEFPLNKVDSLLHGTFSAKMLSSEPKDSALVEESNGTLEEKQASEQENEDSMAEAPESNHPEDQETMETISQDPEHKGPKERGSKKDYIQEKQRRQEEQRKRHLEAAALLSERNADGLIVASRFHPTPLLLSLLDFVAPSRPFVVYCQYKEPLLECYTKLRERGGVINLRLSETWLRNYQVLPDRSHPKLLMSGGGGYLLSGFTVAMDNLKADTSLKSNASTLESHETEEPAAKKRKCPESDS
UniProt Q9H497: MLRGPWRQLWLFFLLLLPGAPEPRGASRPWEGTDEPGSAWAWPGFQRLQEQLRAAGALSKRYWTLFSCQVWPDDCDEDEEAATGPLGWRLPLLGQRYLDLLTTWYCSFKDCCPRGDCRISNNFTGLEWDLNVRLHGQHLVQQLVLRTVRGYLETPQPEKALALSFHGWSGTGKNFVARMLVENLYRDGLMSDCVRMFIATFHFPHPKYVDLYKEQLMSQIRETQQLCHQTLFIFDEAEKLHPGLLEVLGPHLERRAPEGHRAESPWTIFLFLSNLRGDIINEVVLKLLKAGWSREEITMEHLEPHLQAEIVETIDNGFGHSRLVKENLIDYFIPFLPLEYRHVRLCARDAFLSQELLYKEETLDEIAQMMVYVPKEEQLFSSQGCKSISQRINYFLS
UniProt P09493, whole entry, looked up: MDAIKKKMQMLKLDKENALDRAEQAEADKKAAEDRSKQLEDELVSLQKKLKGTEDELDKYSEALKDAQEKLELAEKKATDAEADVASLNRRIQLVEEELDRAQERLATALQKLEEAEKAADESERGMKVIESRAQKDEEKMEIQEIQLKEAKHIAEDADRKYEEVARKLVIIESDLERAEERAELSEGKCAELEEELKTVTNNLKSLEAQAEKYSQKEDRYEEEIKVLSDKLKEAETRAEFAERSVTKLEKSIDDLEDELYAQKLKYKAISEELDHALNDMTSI
UniProt P62995: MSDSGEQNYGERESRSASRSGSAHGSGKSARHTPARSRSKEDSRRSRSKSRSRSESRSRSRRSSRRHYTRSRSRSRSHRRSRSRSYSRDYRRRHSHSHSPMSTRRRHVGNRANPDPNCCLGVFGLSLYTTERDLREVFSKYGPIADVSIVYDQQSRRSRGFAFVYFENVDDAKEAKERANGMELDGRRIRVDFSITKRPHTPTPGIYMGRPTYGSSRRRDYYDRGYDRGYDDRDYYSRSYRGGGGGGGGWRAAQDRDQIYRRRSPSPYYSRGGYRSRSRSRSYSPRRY

[2] = compound: CC1=C(C=C(C=C1)NC(=O)C2=CC(=CC=C2)N(C)C)NC(=O)C3=CC=C(C=C3)O
Procedure, shortened: as §1

[3] = compound: CC1=CC=C(C=C1)SC2=C3C=C(SC3=CN=C2)C(=O)N
Procedure, shortened: as §1

[4] = compound: CC1=NC(=CC=C1)C2=C(N=C(N2)C(C)(C)C)C3=CC4=NC=CN=C4C=C3
Procedure, shortened: as §1

Nexturastat A = compound: CCCCN(Cc1ccc(C(=O)NO)cc1)C(=O)Nc1ccccc1 [Nexturastat A]
Procedure, shortened: as §1

vemurafenib = compound: CCCS(=O)(=O)Nc1ccc(F)c(C(=O)c2c[nH]c3ncc(-c4ccc(Cl)cc4)cc23)c1F [vemurafenib]
Procedure, shortened: as §1

[5] = compound: CCCS(=O)(=O)Nc1ccc(F)c(C(=O)c2c[nH]c3ncc(Cl)cc23)c1F
Procedure, shortened: as §1

[6] = compound: CCCc1cc(C)[nH]c(=O)c1CNC(=O)c1cc(-c2ccnc(N3CCN(C)CC3)c2)cc2c1cnn2C(C)C
Procedure, shortened: as §1

givinostat = compound: CCN(CC)Cc1ccc2cc(COC(=O)Nc3ccc(C(=O)NO)cc3)ccc2c1 [givinostat]
Procedure, shortened: as §1

barasertib = compound: CCN(CCCOc1ccc2c(Nc3cc(CC(=O)Nc4cccc(F)c4)[nH]n3)ncnc2c1)CCOP(=O)(O)O [barasertib]
Procedure, shortened: as §1

[7] = compound: CC[C@@H]1C(=O)N(C)c2cnc(Nc3ccc(C(=O)NC4CCN(C)CC4)cc3OC)nc2N1C1CCCC1
Procedure, shortened: as §1

volasertib = compound: CC[C@@H]1C(=O)N(C)c2cnc(Nc3ccc(C(=O)N[C@H]4CC[C@H](N5CCN(CC6CC6)CC5)CC4)cc3OC)nc2N1C(C)C [volasertib]
Procedure, shortened: as §1

[8] = compound: CC[C@H](C)N1C=C(C2=C(C=C(C=C21)C3=CN=C(C=C3)N4CCNCC4)C(=O)NCC5=C(C=C(NC5=O)C)C)C
Procedure, shortened: as §1

epoxomicin = compound: CC[C@H](C)[C@@H](C(=O)N[C@@H]([C@@H](C)O)C(=O)N[C@@H](CC(C)C)C(=O)[C@]1(CO1)C)NC(=O)[C@H]([C@@H](C)CC)N(C)C(=O)C [epoxomicin]
Procedure, shortened: as §1

[9] = compound: CCn1c(C(=O)N(C2CC2)C2CC2)cc2c3c(ncn3C)c(Nc3cc(C)n(C)n3)nc21
Procedure, shortened: as §1

[10] = compound: CCn1cc(-c2ccnc3[nH]c(-c4cccc(CN(C)C)c4)cc23)c(-c2ccc(NC(=O)N(C)C)cc2)n1
Procedure, shortened: as §1

[11] = compound: CN(C)CC(=O)Nc1ccc2[nH]c(=O)c3ccccc3c2c1
Procedure, shortened: as §1

rosiglitazone = compound: CN(CCOC1=CC=C(C=C1)C[C@H]2C(=O)NC(=O)S2)C3=CC=CC=N3 (racemic) [rosiglitazone]
Procedure, shortened: as §1

[12] = compound: CN1C2=C(C3=C1C(=O)N(N=C3)CC4=CC(=CC=C4)N)SC(=C2)S(=O)C
Procedure, shortened: as §1

[13] = compound: CN1CCC(CNc2ccc3ncc(-c4cccc(OC(F)(F)F)c4)n3n2)CC1
Procedure, shortened: as §1

Measured: log2 fold change

TOX4 (UniProt O94842)
inactive: [1] -0.032 | [2] -0.031 | [3] -0.085 | [4] -0.101 | Nexturastat A 0.249 | vemurafenib 0 | [5] -0.109 | [6] 0.04 | givinostat -0.099 | barasertib -0.014 | [7] 0.192 | volasertib 0.174 | [8] -0.036 | epoxomicin -0.194 | [9] -0.028 | [10] 0.161 | [11] -0.086 | rosiglitazone -0.065 | [12] 0.225 | [13] 0.167

TRAF2 (UniProt Q12933)
inactive: [1] 0.024 | [2] -0.008 | [3] 0.036 | [4] 0.009 | Nexturastat A -0.049 | vemurafenib 0.031 | [5] 0.034 | [6] -0.04 | givinostat -0.014 | barasertib 0.007 | [7] 0.011 | volasertib -0.117 | [8] 0.017 | epoxomicin 0.045 | [9] -0.038 | [10] -0.002 | [11] 0.013 | rosiglitazone 0.034 | [12] -0.079 | [13] -0.017

TOP2B (UniProt Q02880)
inactive: [1] 0.024 | [2] 0.023 | [3] -0.066 | [4] -0.102 | Nexturastat A 0.154 | vemurafenib -0.092 | [5] 0.011 | [6] 0.303 | givinostat 0.172 | barasertib -0.205 | [7] 0.181 | volasertib 0.194 | [8] 0.088 | epoxomicin -0.325 | [9] 0.078 | [10] 0.198 | [11] -0.215 | rosiglitazone -0.232 | [12] 0.383 | [13] 0.189

TRNT1 (UniProt Q96Q11)
inactive: [1] -0.056 | [2] -0.003 | [3] -0.007 | [4] 0.027 | Nexturastat A -0.016 | vemurafenib 0.04 | [5] 0.061 | [6] 0.03 | givinostat 0.022 | barasertib 0.019 | [7] -0.032 | volasertib -0.011 | [8] 0.017 | epoxomicin 0.067 | [9] -0.011 | [10] -0.052 | [11] 0.022 | rosiglitazone 0.046 | [12] -0.043 | [13] -0.14

TPD52L2 isoform 7 (UniProt O43399)
inactive: [1] 0.001 | [2] 0.005 | [3] 0.019 | [4] -0.012 | Nexturastat A -0.046 | vemurafenib -0.016 | [5] 0.007 | [6] -0.03 | givinostat -0.016 | barasertib -0.016 | [7] 0.008 | volasertib 0.078 | [8] -0.016 | epoxomicin -0.003 | [9] 0.03 | [10] 0.046 | [11] -0.019 | rosiglitazone 0.016 | [12] -0.046 | [13] -0.031

Reprinted at random: two entries already listed, in no set order.
TOX4 (UniProt O94842)
inactive: [1] -0.032 | [2] -0.031 | [3] -0.085 | [4] -0.101 | Nexturastat A 0.249 | vemurafenib 0 | [5] -0.109 | [6] 0.04 | givinostat -0.099 | barasertib -0.014 | [7] 0.192 | volasertib 0.174 | [8] -0.036 | epoxomicin -0.194 | [9] -0.028 | [10] 0.161 | [11] -0.086 | rosiglitazone -0.065 | [12] 0.225 | [13] 0.167

TRNT1 (UniProt Q96Q11)
inactive: [1] -0.056 | [2] -0.003 | [3] -0.007 | [4] 0.027 | Nexturastat A -0.016 | vemurafenib 0.04 | [5] 0.061 | [6] 0.03 | givinostat 0.022 | barasertib 0.019 | [7] -0.032 | volasertib -0.011 | [8] 0.017 | epoxomicin 0.067 | [9] -0.011 | [10] -0.052 | [11] 0.022 | rosiglitazone 0.046 | [12] -0.043 | [13] -0.14

(further entries)

TOR2A (UniProt Q5JU69)
inactive: [1] -0.049 | [2] 0.02 | [3] -0.012 | [4] 0.042 | Nexturastat A -0.076 | vemurafenib 0.179 | [5] -0.022 | [6] -0.009 | givinostat -0.021 | barasertib 0.007 | [7] 0.072 | volasertib 0.148 | [8] -0.095 | epoxomicin 0.126 | [9] 0.029 | [10] 0.092 | [11] 0.12 | rosiglitazone -0.018 | [12] 0.034 | [13] 0.099

TPM4, A0A2R8Y5V9
inactive: [1] -0.049 | [2] 0.038 | [3] -0.076 | [4] 0.01 | Nexturastat A -0.047 | vemurafenib -0.011 | [5] -0.115 | [6] -0.016 | givinostat -0.004 | barasertib 0.01 | [7] 0.035 | volasertib 0.158 | [8] 0.011 | epoxomicin 0.004 | [9] -0.003 | [10] -0.001 | [11] -0.001 | rosiglitazone -0.028 | [12] -0.046 | [13] 0.043

TPP2 (UniProt P29144)
inactive: [1] 0.024 | [2] -0.06 | [3] 0.026 | [4] -0.225 | Nexturastat A 0.244 | vemurafenib -0.088 | [5] -0.034 | [6] 0.099 | givinostat 0.153 | barasertib -0.023 | [7] 0.072 | volasertib 0.334 | [8] 0.028 | epoxomicin -0.166 | [9] -0.01 | [10] 0.057 | [11] -0.069 | rosiglitazone -0.043 | [12] 0.131 | [13] 0.093

TOR4A (UniProt Q9NXH8)
inactive: [1] 0 | [2] -0.018 | [3] -0.013 | [4] -0.022 | Nexturastat A 0.075 | vemurafenib 0.048 | [5] -0.043 | [6] 0.081 | givinostat 0.097 | barasertib -0.022 | [7] -0.001 | volasertib 0.011 | [8] 0.018 | epoxomicin -0.054 | [9] 0.012 | [10] 0.128 | [11] 0.003 | rosiglitazone -0.012 | [12] 0.101 | [13] -0.002

TOMM22 (UniProt Q9NS69)
inactive: [1] -0.087 | [2] -0.082 | [3] 0.054 | [4] 0.016 | Nexturastat A -0.021 | vemurafenib 0.048 | [5] -0.006 | [6] 0.007 | givinostat -0.008 | barasertib 0.109 | [7] 0.033 | volasertib -0.009 | [8] -0.003 | epoxomicin 0.098 | [9] -0.03 | [10] 0.012 | [11] 0.033 | rosiglitazone -0.03 | [12] -0.062 | [13] 0.103

TRMT6 (UniProt Q9UJA5)
inactive: [1] -0.079 | [2] 0.036 | [3] 0 | [4] -0.06 | Nexturastat A 0.172 | vemurafenib -0.064 | [5] -0.051 | [6] 0.089 | givinostat -0.007 | barasertib -0.045 | [7] 0.13 | volasertib 0.225 | [8] -0.014 | epoxomicin -0.107 | [9] 0.059 | [10] 0.098 | [11] -0.085 | rosiglitazone -0.106 | [12] 0.202 | [13] -0.053

TRRAP (UniProt Q9Y4A5)
inactive: [1] 0 | [2] 0.029 | [3] -0.01 | [4] -0.006 | Nexturastat A -0.028 | vemurafenib -0.021 | [5] 0.002 | [6] -0.024 | givinostat -0.014 | barasertib -0.005 | [7] 0.001 | volasertib -0.163 | [8] -0.03 | epoxomicin -0.009 | [9] 0.005 | [10] 0.01 | [11] -0.032 | rosiglitazone -0.02 | [12] 0.012 | [13] 0.07

TOR3A (UniProt Q9H497)
inactive: [1] -0.027 | [2] 0.012 | [3] 0.007 | [4] -0.033 | Nexturastat A 0.006 | vemurafenib -0.043 | [5] -0.001 | [6] -0.007 | givinostat 0.023 | barasertib 0.021 | [7] 0.03 | volasertib -0.073 | [8] -0.02 | epoxomicin 0.012 | [9] 0.011 | [10] 0.024 | [11] -0.046 | rosiglitazone -0.017 | [12] 0.055 | [13] 0.015

TRMT61B (UniProt Q9BVS5)
inactive: [1] -0.035 | [2] 0.033 | [3] -0.015 | [4] -0.112 | Nexturastat A 0.119 | vemurafenib -0.049 | [5] -0.107 | [6] 0.021 | givinostat -0.02 | barasertib -0.061 | [7] 0.154 | volasertib 0.234 | [8] -0.03 | epoxomicin -0.056 | [9] 0.006 | [10] 0.059 | [11] -0.128 | rosiglitazone -0.012 | [12] 0.026 | [13] 0.104

TPM1 isoform 4 (UniProt P09493)
inactive: [1] 0.035 | [2] -0.013 | [3] -0.001 | [4] 0.058 | Nexturastat A -0.076 | vemurafenib -0.017 | [5] -0.004 | [6] 0.241 | givinostat -0.032 | barasertib 0.014 | [7] 0.011 | volasertib 0.056 | [8] -0.003 | epoxomicin 0.01 | [9] 0.021 | [10] -0.004 | [11] -0.01 | rosiglitazone 0.001 | [12] -0.046 | [13] 0.067

TRA2B (UniProt P62995)
inactive: [1] -0.033 | [2] 0.098 | [3] -0.054 | [4] -0.126 | Nexturastat A 0.241 | vemurafenib -0.076 | [5] -0.077 | [6] 0.065 | givinostat -0.007 | barasertib -0.165 | [7] 0.157 | volasertib 0.131 | [8] -0.031 | epoxomicin -0.139 | [9] 0.032 | [10] 0.42 | [11] -0.024 | rosiglitazone -0.243 | [12] 0.38 | [13] 0.391
